Results are given in words; binding and its absence hold for the method and conditions named. Binding seen in cells or lysates may run through a third protein. Some binding calls cover weakened binding; strength is not graded here. Sequences can lack the tags named with a protein. One block for each molecule: values may come before it.
Tests used:
GFP-CEP19 = target: T1, GFP-CEP19 (UniProt Q96LK0); experiment: co-IP; GFP fusions of CEP19 precipitated from transfected HEK 293 lysate with goat GFP antibody on Protein G Sepharose, 4 °C; 50 mM HEPES pH 8, 100 mM KCl, 2 mM EDTA, 10% glycerol, 0.1% NP-40, 1 mM DTT; blots for endogenous proteins
T1 sequence: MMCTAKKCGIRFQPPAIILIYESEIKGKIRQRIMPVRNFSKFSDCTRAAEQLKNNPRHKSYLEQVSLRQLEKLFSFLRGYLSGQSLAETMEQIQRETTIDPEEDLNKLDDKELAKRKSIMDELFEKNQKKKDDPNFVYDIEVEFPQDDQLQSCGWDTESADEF

The chains behind the UniProt entries cited, without tags or fusion partners.
UniProt Q5VT06: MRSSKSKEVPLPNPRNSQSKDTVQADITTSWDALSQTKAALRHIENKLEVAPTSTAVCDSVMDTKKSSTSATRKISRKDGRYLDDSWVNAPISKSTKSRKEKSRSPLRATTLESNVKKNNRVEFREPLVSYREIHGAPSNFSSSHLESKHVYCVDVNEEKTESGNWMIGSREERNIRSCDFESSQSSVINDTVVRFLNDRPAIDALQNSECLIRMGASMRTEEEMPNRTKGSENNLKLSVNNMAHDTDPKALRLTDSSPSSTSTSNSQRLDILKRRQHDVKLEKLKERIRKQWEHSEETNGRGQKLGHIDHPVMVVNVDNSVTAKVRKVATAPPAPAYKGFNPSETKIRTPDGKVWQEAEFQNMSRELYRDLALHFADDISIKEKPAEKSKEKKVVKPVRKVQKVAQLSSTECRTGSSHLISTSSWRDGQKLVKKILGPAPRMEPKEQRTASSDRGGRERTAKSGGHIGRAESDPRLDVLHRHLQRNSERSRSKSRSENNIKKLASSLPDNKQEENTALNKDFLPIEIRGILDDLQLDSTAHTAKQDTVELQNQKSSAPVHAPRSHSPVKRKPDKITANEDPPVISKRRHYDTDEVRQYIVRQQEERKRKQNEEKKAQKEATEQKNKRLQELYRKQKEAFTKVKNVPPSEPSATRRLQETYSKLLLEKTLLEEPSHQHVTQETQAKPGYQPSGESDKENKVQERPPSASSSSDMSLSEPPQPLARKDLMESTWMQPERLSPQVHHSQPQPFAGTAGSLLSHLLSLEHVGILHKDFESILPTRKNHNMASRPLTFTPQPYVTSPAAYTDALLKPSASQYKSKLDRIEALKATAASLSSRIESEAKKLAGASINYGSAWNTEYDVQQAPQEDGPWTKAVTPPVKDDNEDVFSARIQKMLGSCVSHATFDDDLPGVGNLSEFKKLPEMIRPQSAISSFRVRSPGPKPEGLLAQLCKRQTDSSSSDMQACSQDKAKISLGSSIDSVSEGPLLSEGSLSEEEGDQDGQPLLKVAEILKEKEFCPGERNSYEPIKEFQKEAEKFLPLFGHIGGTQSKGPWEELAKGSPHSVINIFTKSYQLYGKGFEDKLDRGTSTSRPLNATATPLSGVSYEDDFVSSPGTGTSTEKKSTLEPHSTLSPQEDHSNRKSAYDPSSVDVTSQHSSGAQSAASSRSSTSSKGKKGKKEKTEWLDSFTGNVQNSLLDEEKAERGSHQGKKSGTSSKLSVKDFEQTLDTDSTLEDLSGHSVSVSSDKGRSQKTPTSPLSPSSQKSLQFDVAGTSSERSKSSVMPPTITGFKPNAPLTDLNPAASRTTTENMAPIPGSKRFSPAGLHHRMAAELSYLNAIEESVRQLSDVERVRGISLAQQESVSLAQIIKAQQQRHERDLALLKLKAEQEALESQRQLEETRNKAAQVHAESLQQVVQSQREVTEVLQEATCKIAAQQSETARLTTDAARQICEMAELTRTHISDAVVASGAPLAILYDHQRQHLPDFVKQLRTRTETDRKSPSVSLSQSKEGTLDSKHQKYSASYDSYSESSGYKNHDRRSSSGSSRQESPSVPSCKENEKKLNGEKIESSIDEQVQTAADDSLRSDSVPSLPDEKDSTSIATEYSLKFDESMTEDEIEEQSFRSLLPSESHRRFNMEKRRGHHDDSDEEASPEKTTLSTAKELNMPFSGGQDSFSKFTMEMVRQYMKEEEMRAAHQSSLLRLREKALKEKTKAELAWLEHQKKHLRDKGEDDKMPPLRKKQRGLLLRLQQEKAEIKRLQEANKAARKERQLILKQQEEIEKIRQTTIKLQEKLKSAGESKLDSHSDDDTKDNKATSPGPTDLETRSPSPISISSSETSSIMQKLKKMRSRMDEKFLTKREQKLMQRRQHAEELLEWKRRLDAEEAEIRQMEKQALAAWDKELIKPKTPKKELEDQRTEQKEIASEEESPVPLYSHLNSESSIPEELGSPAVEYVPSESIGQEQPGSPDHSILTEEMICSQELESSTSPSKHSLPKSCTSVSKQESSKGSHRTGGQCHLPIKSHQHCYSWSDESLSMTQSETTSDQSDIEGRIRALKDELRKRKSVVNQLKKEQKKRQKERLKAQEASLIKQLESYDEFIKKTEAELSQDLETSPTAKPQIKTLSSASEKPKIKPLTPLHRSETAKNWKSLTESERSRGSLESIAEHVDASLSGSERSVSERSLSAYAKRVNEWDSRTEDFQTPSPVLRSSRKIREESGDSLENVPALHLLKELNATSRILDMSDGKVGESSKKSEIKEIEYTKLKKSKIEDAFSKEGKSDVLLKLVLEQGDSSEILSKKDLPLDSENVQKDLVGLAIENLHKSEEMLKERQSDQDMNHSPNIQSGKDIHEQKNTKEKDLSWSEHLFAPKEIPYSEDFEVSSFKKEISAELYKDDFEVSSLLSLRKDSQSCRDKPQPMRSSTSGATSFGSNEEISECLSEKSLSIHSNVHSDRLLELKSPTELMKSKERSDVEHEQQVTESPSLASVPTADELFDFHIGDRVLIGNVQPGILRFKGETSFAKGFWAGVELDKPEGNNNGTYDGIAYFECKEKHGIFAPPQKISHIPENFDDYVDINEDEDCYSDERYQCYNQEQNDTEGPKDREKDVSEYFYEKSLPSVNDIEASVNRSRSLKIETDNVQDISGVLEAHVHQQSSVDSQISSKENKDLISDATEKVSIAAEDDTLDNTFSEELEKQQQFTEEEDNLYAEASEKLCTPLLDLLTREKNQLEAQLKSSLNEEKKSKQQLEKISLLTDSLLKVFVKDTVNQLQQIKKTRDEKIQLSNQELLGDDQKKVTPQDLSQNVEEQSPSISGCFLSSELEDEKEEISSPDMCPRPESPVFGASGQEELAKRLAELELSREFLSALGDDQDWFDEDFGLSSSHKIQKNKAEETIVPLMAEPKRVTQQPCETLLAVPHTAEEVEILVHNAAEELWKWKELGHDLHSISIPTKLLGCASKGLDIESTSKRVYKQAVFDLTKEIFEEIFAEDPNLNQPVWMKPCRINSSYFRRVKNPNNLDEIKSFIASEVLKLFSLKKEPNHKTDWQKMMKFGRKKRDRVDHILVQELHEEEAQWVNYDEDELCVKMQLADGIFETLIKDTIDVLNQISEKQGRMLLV

GFP-CEP19 R82* mutant = target: T2, GFP-CEP19 R82* mutant (UniProt Q96LK0); experiment: as above
T2 sequence: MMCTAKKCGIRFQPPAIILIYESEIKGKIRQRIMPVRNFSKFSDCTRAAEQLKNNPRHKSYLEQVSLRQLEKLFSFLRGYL

- binding (GFP-CEP19): binds
- binding (GFP-CEP19 R82* mutant): no binding
Molecule: CEP350 (from UniProt Q5VT06 1-3117)

- binding (GFP-CEP19): binds
- binding (GFP-CEP19 R82* mutant): no binding
B1: FGFR1OP (FOP) (protein, UniProt O95684 1-399)
chain: MAATAAAVVAEEDTELRDLLVQTLENSGVLNRIKAELRAAVFLALEEQEKVENKTPLVNESLKKFLNTKDGRLVASLVAEFLQFFNLDFTLAVFQPETSTLQGLEGRENLARDLGIIEAEGTVGGPLLLEVIRRCQQKEKGPTTGEGALDLSDVHSPPKSPEGKTSAQTTPSKIPRYKGQGKKKTSGQKAGDKKANDEANQSDTSVSLSEPKSKSSLHLLSHETKIGSFLSNRTLDGKDKAGLCPDEDDMEGDSFFDDPIPKPEKTYGLRKEPRKQAGSLASLSDAPPLKSGLSSLAGAPSLKDSESKRGNTVLKDLKLISDKIGSLGLGTGEDDDYVDDFNSTSHRSEKSEISIGEEIEEDLSVEIDDINTSDKLDDLTQDLTVSQLSDVADYLEDVA

Source: paper PMC5493781
